These are yes or no findings as the source states them, for the method shown. For some assays here: Binding seen in cells or lysates may run through a third protein. Some binding calls cover weakened binding; strength is not graded here. For some assays here: Tags and fused reporters may be left off the sequences shown.
Legend:
[1] = target: T1, Sema5A-Fc (Sema5A ectodomain fused to Fc) (rat) (UniProt D3ZTD8); test: pull-down; Sema5A-Fc or human IgG (50 nM) incubated with 6xMyc-tagged PlexA1 or PlexA2 ectodomain produced in HEK293T cells, pulled down with Protein G Plus/Protein A-agarose beads, anti-myc immunoblot; only the target purified
T1 sequence: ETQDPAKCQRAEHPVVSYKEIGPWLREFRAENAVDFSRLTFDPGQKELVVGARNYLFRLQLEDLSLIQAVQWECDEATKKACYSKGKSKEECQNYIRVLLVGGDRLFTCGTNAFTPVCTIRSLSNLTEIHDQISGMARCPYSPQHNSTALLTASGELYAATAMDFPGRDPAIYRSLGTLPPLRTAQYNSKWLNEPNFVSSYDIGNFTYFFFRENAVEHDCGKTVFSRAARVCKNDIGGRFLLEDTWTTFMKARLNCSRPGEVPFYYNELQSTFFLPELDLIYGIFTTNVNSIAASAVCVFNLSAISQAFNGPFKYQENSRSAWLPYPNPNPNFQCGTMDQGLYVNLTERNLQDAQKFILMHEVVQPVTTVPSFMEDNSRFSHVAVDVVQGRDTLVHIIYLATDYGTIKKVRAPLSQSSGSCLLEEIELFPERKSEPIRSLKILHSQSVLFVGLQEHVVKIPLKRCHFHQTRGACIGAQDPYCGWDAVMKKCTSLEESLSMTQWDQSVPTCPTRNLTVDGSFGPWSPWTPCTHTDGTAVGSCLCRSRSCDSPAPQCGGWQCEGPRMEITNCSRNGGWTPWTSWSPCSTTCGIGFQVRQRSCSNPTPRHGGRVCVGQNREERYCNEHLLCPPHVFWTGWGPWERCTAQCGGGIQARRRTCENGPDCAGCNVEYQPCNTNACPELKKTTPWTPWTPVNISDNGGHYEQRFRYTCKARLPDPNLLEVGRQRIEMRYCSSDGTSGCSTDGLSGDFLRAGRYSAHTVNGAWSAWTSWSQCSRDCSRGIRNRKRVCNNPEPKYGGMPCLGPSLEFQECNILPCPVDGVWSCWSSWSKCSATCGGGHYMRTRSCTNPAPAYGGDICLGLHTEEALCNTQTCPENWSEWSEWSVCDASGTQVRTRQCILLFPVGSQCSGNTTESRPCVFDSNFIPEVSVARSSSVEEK

The chains behind the UniProt entries cited, without tags or fusion partners. Where a name states a change or a piece, a line headed by the entry shows the natural chain unless it says otherwise. Residues count along the entry.
UniProt P70206: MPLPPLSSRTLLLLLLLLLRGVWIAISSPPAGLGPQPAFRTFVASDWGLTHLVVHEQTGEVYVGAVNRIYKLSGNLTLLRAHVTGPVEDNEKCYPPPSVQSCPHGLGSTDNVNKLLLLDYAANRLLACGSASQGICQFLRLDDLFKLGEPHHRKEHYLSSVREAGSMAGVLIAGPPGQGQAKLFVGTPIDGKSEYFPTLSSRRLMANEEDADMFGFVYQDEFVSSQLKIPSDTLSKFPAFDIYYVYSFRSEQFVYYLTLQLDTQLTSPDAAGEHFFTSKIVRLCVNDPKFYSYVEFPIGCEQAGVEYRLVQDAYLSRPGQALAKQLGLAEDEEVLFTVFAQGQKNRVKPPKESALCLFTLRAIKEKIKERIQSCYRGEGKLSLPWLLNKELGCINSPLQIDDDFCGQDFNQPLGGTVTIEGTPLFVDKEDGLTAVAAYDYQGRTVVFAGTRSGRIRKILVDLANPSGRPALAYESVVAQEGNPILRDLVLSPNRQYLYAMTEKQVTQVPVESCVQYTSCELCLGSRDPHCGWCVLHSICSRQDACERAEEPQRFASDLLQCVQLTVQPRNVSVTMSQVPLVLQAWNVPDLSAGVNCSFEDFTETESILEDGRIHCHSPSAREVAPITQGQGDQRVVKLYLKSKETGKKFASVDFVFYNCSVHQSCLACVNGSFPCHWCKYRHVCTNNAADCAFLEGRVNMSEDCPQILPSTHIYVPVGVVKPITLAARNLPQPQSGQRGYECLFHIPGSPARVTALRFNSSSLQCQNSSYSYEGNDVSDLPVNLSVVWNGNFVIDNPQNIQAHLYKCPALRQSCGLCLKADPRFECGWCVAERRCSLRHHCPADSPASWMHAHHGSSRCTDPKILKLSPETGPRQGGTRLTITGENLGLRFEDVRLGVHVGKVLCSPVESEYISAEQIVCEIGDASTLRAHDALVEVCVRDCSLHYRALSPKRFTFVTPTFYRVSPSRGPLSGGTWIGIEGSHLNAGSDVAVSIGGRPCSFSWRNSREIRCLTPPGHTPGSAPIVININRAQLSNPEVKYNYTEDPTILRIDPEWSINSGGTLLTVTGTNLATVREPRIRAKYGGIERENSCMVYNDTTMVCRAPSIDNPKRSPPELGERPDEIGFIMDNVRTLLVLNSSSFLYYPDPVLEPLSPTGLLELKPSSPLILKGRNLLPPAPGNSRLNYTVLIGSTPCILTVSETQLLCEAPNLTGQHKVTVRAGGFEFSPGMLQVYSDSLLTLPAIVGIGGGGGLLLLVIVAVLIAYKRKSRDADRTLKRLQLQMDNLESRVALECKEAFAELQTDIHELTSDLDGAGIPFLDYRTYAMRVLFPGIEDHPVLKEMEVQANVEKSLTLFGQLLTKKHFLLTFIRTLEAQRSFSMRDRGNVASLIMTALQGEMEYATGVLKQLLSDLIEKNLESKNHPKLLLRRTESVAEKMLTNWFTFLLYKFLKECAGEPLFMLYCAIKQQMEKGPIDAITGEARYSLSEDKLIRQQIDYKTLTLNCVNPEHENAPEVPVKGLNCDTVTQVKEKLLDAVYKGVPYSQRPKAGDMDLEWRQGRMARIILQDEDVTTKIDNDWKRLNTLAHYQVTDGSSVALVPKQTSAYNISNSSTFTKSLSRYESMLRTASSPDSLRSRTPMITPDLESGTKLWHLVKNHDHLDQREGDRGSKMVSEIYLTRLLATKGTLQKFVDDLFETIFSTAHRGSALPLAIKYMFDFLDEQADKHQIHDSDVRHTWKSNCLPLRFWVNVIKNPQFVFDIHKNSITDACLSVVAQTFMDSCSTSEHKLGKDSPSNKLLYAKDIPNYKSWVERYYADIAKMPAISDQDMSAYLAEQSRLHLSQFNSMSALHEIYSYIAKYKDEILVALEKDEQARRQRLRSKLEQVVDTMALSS
UniProt P70207, residues 35-1894: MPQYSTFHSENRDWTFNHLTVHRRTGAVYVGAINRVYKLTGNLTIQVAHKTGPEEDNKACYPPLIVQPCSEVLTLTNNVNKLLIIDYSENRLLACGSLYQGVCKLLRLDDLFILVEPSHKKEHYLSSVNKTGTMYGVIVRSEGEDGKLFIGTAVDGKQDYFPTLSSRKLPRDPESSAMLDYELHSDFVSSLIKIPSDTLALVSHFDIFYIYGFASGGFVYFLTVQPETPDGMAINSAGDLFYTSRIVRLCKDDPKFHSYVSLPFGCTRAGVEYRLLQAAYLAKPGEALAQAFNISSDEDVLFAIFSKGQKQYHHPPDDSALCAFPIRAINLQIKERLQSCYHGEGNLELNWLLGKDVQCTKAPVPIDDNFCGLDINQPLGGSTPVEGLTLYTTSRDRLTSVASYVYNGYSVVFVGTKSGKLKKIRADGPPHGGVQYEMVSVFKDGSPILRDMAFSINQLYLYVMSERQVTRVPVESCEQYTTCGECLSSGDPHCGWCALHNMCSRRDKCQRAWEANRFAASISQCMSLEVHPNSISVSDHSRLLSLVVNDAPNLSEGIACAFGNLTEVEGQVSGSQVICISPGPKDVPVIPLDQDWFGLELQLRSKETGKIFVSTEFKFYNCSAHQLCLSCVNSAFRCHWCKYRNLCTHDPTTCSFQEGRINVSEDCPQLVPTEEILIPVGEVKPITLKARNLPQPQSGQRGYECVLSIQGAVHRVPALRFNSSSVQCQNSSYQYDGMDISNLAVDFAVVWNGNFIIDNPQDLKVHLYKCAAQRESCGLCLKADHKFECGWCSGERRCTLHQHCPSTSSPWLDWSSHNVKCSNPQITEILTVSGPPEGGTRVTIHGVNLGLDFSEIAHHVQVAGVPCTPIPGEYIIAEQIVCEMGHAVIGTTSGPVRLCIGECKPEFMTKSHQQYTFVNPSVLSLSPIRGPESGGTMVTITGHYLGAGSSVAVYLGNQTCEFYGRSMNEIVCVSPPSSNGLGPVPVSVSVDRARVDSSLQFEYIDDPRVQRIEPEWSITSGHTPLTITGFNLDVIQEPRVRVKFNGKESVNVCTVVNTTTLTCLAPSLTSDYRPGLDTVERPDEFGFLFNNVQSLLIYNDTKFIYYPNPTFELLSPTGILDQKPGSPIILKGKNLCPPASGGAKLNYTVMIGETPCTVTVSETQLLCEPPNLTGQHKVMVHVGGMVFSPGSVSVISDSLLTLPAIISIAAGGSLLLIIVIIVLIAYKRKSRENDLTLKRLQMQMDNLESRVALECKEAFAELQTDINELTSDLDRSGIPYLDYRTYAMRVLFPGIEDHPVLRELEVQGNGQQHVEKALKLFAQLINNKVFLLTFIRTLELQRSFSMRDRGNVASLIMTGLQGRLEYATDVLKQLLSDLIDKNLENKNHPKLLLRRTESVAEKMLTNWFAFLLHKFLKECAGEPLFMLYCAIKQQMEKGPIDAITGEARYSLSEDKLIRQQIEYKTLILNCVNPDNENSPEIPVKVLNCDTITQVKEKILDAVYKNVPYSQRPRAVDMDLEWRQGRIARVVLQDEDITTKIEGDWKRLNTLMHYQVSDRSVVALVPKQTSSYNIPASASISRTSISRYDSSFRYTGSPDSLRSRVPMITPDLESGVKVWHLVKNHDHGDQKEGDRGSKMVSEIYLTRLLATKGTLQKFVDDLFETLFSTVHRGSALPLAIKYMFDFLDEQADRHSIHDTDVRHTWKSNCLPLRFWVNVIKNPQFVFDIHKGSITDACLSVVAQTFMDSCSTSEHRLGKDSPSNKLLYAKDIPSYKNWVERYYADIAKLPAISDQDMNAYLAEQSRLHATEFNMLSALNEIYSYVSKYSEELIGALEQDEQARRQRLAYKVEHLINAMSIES
UniProt P70208, residues 20-1872: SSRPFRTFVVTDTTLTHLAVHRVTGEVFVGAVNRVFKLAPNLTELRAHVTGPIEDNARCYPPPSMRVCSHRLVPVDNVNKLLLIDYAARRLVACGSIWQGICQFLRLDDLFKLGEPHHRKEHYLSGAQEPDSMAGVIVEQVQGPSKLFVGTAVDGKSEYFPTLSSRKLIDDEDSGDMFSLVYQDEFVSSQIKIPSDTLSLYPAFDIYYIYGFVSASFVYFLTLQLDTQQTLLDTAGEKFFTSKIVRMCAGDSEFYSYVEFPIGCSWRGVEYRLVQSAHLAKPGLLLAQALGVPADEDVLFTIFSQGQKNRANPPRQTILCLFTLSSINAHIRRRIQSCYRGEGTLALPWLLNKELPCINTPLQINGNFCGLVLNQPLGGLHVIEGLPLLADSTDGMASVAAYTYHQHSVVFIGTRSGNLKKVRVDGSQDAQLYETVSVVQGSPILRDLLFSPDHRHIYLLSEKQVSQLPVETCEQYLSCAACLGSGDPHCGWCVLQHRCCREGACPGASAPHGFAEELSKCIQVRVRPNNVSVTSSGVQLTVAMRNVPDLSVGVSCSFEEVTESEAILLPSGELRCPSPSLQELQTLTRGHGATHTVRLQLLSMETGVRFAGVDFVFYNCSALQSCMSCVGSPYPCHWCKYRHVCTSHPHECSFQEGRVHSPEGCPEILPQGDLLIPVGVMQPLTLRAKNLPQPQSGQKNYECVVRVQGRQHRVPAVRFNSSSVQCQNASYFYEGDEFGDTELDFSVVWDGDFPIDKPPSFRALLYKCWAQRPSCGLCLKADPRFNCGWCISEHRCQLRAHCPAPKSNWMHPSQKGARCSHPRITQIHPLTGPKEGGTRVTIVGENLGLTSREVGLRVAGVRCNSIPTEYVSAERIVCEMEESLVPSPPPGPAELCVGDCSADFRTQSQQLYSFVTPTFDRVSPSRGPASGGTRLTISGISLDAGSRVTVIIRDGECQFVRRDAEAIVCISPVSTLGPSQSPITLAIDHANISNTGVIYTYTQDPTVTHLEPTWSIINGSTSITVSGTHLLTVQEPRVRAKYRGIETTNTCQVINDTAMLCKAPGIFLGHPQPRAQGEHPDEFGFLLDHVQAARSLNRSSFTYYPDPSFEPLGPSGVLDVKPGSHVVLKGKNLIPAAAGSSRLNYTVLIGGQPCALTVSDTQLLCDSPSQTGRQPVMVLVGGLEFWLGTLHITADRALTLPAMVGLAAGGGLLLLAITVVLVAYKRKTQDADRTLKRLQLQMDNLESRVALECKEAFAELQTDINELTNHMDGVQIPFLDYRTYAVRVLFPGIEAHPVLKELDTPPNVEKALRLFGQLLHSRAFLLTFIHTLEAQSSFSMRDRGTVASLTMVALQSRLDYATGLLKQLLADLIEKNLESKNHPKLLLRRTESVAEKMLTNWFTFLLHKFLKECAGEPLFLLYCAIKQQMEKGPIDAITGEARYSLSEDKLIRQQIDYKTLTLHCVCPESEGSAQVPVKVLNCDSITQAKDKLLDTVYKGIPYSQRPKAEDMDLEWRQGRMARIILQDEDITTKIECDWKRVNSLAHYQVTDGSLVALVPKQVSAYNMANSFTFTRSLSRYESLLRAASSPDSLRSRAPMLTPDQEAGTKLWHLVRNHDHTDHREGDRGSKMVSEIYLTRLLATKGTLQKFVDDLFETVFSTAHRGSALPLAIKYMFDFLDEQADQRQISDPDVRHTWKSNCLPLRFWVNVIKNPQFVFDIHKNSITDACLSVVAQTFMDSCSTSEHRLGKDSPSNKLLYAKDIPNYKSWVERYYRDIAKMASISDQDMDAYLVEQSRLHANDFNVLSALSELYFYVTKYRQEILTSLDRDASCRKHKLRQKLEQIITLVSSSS

[2] = target: T2, 6xMyc-Sema5A^ΔTSR-GFP (rat) (UniProt D3ZTD8); test: co-IP; HEK293T cells co-transfected (low-density cultures); lysis in 20 mM TrisHCl pH 7.5, 150 mM NaCl, 1% CHAPS, 1% Triton X-100; IP with mouse anti-GFP, anti-myc immunoblot
T2 sequence: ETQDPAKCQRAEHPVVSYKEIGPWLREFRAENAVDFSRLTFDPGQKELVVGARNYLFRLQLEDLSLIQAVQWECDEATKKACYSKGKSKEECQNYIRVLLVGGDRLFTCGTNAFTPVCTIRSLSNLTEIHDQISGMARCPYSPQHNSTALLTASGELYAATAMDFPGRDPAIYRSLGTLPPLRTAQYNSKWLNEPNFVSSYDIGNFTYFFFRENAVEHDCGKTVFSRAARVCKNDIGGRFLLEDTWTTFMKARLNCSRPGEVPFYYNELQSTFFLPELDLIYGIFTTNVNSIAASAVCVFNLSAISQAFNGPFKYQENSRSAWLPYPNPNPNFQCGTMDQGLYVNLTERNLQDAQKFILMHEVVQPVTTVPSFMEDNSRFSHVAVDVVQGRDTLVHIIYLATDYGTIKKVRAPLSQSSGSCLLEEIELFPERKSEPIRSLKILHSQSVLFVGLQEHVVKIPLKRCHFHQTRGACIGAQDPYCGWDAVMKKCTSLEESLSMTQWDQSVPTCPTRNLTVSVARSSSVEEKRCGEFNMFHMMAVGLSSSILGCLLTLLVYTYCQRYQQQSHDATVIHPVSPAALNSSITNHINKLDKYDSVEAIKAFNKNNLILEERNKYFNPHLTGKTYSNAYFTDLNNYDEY

[3] = target: T3, 6xMyc-FL-Sema5A-GFP (rat) (UniProt D3ZTD8); test: as above
T3 sequence: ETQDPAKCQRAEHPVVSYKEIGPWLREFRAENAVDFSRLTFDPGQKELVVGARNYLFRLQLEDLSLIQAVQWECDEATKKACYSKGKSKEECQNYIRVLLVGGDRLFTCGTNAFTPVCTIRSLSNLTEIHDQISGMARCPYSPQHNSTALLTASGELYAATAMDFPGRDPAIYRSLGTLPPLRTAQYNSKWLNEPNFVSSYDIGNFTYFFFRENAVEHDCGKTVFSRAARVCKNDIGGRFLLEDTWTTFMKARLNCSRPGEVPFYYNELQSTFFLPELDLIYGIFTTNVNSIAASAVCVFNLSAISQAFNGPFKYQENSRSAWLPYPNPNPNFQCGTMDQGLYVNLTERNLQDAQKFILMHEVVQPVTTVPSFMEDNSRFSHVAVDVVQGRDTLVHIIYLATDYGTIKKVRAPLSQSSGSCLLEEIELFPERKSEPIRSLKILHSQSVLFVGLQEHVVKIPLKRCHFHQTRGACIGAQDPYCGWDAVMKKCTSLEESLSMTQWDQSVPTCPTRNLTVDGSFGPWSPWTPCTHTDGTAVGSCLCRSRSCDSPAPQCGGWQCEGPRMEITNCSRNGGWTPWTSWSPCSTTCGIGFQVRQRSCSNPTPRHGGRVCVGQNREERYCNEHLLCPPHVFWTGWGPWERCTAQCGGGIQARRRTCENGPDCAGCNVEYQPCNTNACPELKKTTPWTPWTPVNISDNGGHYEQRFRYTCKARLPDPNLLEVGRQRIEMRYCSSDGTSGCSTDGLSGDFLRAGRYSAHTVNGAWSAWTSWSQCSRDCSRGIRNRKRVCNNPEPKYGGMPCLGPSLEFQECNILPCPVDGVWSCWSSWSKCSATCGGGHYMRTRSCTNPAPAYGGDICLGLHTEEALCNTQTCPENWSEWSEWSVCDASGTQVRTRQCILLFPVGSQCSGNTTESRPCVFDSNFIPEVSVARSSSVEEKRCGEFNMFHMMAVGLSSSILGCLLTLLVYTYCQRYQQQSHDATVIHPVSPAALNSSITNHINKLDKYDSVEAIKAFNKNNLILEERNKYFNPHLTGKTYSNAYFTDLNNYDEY

[4] = target: T4, membrane-bound Sema5A lacking the seven TSRs (6xMyc-Sema5A^ΔTSR) (rat) (UniProt D3ZTD8); test: binding of AP-clustered Fc fusion protein to transfected cells; COS7 cells transfected with PlexA or semaphorin constructs, incubated 75 min in OptiMEM with Fc fusion protein preclustered with anti-human IgG conjugated to alkaline phosphatase; rinsed, fixed, developed with NBT/BCIP; only the binder purified
T4 sequence: T2 sequence

FL-Sema6D = target: T5, FL-Sema6D (UniProt Q76KF0); test: as above
T5 sequence: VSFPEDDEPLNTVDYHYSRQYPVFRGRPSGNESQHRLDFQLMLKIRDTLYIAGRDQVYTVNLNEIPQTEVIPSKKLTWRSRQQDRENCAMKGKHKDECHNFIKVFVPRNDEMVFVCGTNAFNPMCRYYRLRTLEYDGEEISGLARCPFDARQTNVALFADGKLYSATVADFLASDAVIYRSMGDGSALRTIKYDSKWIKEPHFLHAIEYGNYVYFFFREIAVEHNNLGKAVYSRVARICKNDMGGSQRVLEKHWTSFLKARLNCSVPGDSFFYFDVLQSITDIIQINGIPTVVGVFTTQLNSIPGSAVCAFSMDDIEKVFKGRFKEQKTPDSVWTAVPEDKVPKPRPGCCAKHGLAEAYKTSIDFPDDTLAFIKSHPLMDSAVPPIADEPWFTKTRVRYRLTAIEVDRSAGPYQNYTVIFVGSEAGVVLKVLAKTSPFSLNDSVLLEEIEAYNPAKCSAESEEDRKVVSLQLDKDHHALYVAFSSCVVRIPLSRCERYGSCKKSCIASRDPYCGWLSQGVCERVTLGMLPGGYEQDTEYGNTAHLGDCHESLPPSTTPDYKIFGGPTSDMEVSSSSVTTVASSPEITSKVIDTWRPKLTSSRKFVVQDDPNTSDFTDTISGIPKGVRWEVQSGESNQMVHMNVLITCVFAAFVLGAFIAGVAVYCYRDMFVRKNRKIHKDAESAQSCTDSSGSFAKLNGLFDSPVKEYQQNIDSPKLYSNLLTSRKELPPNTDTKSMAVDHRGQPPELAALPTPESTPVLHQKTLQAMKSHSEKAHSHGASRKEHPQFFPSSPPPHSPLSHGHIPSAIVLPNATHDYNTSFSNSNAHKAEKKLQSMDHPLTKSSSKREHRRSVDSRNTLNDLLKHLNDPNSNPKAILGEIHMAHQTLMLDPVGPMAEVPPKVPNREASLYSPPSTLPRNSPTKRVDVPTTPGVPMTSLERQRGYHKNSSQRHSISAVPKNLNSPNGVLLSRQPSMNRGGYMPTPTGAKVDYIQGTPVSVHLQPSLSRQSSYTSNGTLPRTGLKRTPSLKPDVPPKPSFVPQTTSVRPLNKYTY

[5] = target: T6, 6xMyc N-terminal-tagged full-length (FL)-Sema5A (rat) (UniProt D3ZTD8); test: as above
T6 sequence: T3 sequence

binding [2] | binding [3] | Substance | other results
 |  | 6xMyc-tagged PlexA1 ectodomain (6x-myc-PlexA1^ect) (from UniProt P70206 28-1242) (domain or fragment) | binding [1]: binds
binds |  | PlexA1 lacking the cytoplasmic domain (PlexA1^Δcyt) (from UniProt P70206 28-1283) (receptor) | 
binds | binds | full-length PlexA1 with an N-terminal 6xMyc tag (from UniProt P70206 28-1894) (receptor) | 
binds | binds | full-length PlexA2 with an N-terminal 6xMyc tag (from UniProt P70207 35-1894) (receptor) | 
no binding | no binding | full-length PlexA3 with an N-terminal 6xMyc tag (from UniProt P70208 20-1872) (receptor) | 
 |  | sema domain of PlexA1 fused to Fc (PlexA1^SD-Fc) (from UniProt P70206 28-580) (Fc fusion) | binding [4]: binds; binding (FL-Sema6D): binds; binding [5]: binds

Source: PMC4236683
